Measured values from PubChem BioAssay AID330 (DTP/NCI, 2004).
The list is a part of this screen's results and no random one: it is rich in T/C values a quarter to a half above the control, in often repeated tests (any T/C) and in doses without a T/C. Further doses and runs are listed elsewhere. T/C gives the treated animals as a percentage of the vehicle group. Some doses have a count of surviving animals in place of a T/C: the source holds a T/C of zero for them, seemingly a mark for toxic or unscored doses. Some doses without a T/C left all or most animals alive at the check, yet need not have been tolerated: survival well below the control is almost never listed, so the zero probably covers shortened survival too. Survivors were counted at the toxicity check, usually on the fifth day, unless a day is given; later deaths do not show. Schedule codes are those of the source, taken here to give the interval after Q, in days (D) or hours (H), and the number of doses after X. Some entries hold several experiments; the values are given in rising order. For survival time, this PubChem deposit counts one and a half times the control or more as active, and values a quarter to a half above the control carry no call in these data; other NCI protocols may use other cut-offs. Some structures stand for samples that the source files as different forms (salt, stereo form or complex); doses refer to the form tested.

System: P388 leukemia ip, CD2F1 mice, survival T/C
Assay: NCI In Vivo Anticancer Drug Screen. Data for tumor model P388 Leukemia (intraperitoneal) in CD2F1 (CDF1) mice
Settings: T/C endpoint: median survival time, higher T/C = longer survival
[1] = dose: 100.0 mg/kg/injection, schedule: Q01DX009 (ip), vehicle: saline with Tween-80
[2] = dose: 200.0 mg/kg/injection, schedule: Q01DX009 (ip), vehicle: saline with Tween-80
[3] = dose: 200.0 mg/kg/injection, schedule: Q01DX005 (ip), vehicle: saline with Tween-80
[4] = dose: 100.0 mg/kg/injection, schedule: Q01DX005 (ip), vehicle: Klucel (hydroxypropylcellulose) (HPC)
[5] = dose: 240.0 mg/kg/injection, schedule: Q01DX005 (ip), vehicle: saline with Tween-80
[6] = dose: 200.0 mg/kg/injection, schedule: Q01DX005 (ip), vehicle: Klucel (hydroxypropylcellulose) (HPC)
[7] = dose: 200.0 mg/kg/injection, schedule: Q01DX009 (ip), vehicle: Klucel (hydroxypropylcellulose) (HPC)

O=C1C(Cl)=C(N=Nc2c(Cl)c(O)c3ccccc3c2O)C(=O)c2ccccc21
T/C (dose: 12.5 mg/kg/injection, schedule: Q01DX010 (ip), vehicle: saline): 136 % of control

CCCC(NC(N)=O)C(CCC)NC(N)=O (stereo not drawn)
survivor count [1]: 4 of 6
survivor count [2]: 0 of 6

C[N+](C)(C)CCNP(=O)(Oc1ccccc1)c1ccccc1 (stereo not drawn)
survivor count [3]: 2 of 6

COc1ccc2c(c1O)-c1c(O)c(OC)cc3c1[C@H](C2)[N+](C)(C)CC3
survivor count (dose: 100.0 mg/kg/injection, schedule: Q04DX003 (ip), vehicle: saline): 0 of 6
survivor count (dose: 200.0 mg/kg/injection, schedule: Q04DX003 (ip), vehicle: saline): 0 of 6
survivor count (dose: 400.0 mg/kg/injection, schedule: Q04DX003 (ip), vehicle: saline): 0 of 6

CC1=C(C#N)C(=O)NC1(C)O (stereo not drawn)
survivor count [4]: 5 of 5

CCOc1cccc(C=N)c1O
survivor count [5]: 0 of 6

COc1ccc(/C=N\NC(=O)CNC(=O)Nc2cccc([N+](=O)[O-])c2)cc1O
survivor count (dose: 60.0 mg/kg/injection, schedule: Q01DX005 (ip), vehicle: saline with Tween-80): 6 of 6
survivor count (dose: 120.0 mg/kg/injection, schedule: Q01DX005 (ip), vehicle: saline with Tween-80): 6 of 6

C/C(=N\NC(=S)N1CCCCCC1)c1nccnc1C
T/C (dose: 50.0 mg/kg/injection, schedule: Q01DX005 (ip), vehicle: Klucel (hydroxypropylcellulose) (HPC)): 130 % of control
T/C [4]: 130 % of control
survivor count [4]: 1 of 6
survivor count [6]: 0 of 6

CS[C@@H]1C[C@H]2[C@@H]3CCC4=CC(=O)CC[C@]4(C)[C@H]3CC[C@]2(C)[C@H]1C(C)=O
survivor count [1]: 6 of 6
survivor count [2]: 6 of 6
survivor count (dose: 400.0 mg/kg/injection, schedule: Q01DX009 (ip), vehicle: saline with Tween-80): 6 of 6

CC1C2CC3OC(=O)C1C3C2 (stereo not drawn)
survivor count (dose: 100.0 mg/kg/injection, schedule: Q01DX005 (ip), vehicle: saline with Tween-80): 0 of 6
survivor count [3]: 0 of 6

CCCCCCCCCCCC(=O)c1c(O)c2ccccc2oc1=O
survivor count [3]: 3 of 6

CN(CCCCC1CCCN(C(=O)c2ccccc2)C1)C(=O)c1ccccc1 (stereo not drawn)
survivor count [4]: 1 of 5
survivor count [6]: 0 of 5

CC1(C)CCC2(C(=O)O)CCC3(C)C(=CCC4C5(C)CC(O)C(O)C(C)(C(=O)O)C5CCC43C)C2C1 (stereo not drawn)
survivor count (dose: 16.25 mg/kg/injection, schedule: Q01DX005 (ip), vehicle: saline): 2 of 6
survivor count (dose: 32.5 mg/kg/injection, schedule: Q01DX005 (ip), vehicle: saline): 2 of 6
survivor count (dose: 65.0 mg/kg/injection, schedule: Q01DX005 (ip), vehicle: saline): 0 of 6
survivor count (dose: 130.0 mg/kg/injection, schedule: Q01DX005 (ip), vehicle: saline): 0 of 6

CCCCCCC[As](C)(=O)O
survivor count (dose: 50.0 mg/kg/injection, schedule: Q01DX001 (ip), vehicle: Klucel (hydroxypropylcellulose) (HPC)): 1 of 6 and 3 of 6
survivor count (dose: 100.0 mg/kg/injection, schedule: Q01DX001 (ip), vehicle: Klucel (hydroxypropylcellulose) (HPC)): 1 of 6 and 2 of 6
survivor count (dose: 200.0 mg/kg/injection, schedule: Q01DX001 (ip), vehicle: Klucel (hydroxypropylcellulose) (HPC)): 1 of 6 and 2 of 6

Cc1cccc(C(C)C)c1NC(=O)C(=O)C(C#N)c1ccc(CC#N)cc1 (stereo not drawn)
survivor count [5]: 0 of 6

NC(CSC(c1ccccc1)(c1ccccc1)c1ccccc1)C(=O)OC(c1ccccc1)c1ccccc1 (stereo not drawn)
T/C (dose: 100.0 mg/kg/injection, schedule: Q04DX003 (ip), vehicle: saline with Tween-80): 127 % of control
T/C (dose: 200.0 mg/kg/injection, schedule: Q04DX003 (ip), vehicle: saline with Tween-80): 131 % of control
T/C (dose: 264.0 mg/kg/injection, schedule: Q04DX003 (ip), vehicle: saline with Tween-80): 136 % of control

CCCCCCCCCCCCCCCC[N+](C)(CCO)Cc1ccccc1 (stereo not drawn)
survivor count (dose: 25.0 mg/kg/injection, schedule: Q04DX002 (ip), vehicle: saline with Tween-80): 5 of 6

COc1cc2ccc3c[n+](C)ccc3c2cc1OC
T/C (dose: 12.5 mg/kg/injection, schedule: Q01DX009 (ip), vehicle: water): 125 % of control
T/C (dose: 50.0 mg/kg/injection, schedule: Q01DX009 (ip), vehicle: other): 132 % of control
T/C (dose: 50.0 mg/kg/injection, schedule: Q01DX009 (ip), vehicle: water): 125 and 129 % of control
T/C (dose: 100.0 mg/kg/injection, schedule: Q01DX009 (ip), vehicle: other): 135 % of control
T/C (dose: 100.0 mg/kg/injection, schedule: Q01DX009 (ip), vehicle: water): 137 % of control

O=[N+]([O-])c1cccc2ccc(N/N=C/c3ccccc3O)nc12
survivor count (dose: 25.0 mg/kg/injection, schedule: Q01DX009 (ip), vehicle: Klucel (hydroxypropylcellulose) (HPC)): 3 of 6
survivor count (dose: 50.0 mg/kg/injection, schedule: Q01DX009 (ip), vehicle: Klucel (hydroxypropylcellulose) (HPC)): 5 of 6
survivor count [7]: 5 of 6
survivor count (dose: 400.0 mg/kg/injection, schedule: Q01DX009 (ip), vehicle: Klucel (hydroxypropylcellulose) (HPC)): 6 of 6

CCCCCC(CN(C)C)/C(CC(NO)c1ccccc1)=N\O (stereo not drawn)
survivor count [7]: 4 of 6

COc1ccc2c(c1)C=C([N+](=O)[O-])C(N1CCOCC1)O2 (stereo not drawn)
survivor count [4]: 2 of 6
survivor count [6]: 0 of 6

O=c1[nH]c2c(cnn2-c2ccc(Cl)cc2)c(=O)n1-c1cccc(Cl)c1
survivor count (dose: 100.0 mg/kg/injection, schedule: Q01DX009 (ip), vehicle: Klucel (hydroxypropylcellulose) (HPC)): 4 of 6
survivor count [7]: 0 of 6

O=C(Cc1cc(-c2ccccc2)nc(=O)[nH]1)c1ccccc1
survivor count (dose: 400.0 mg/kg/injection, schedule: Q04DX002 (ip), vehicle: saline with Tween-80): 6 of 6

COC1=Nc2ccccc2N2CCN=C12
survivor count (dose: 100.0 mg/kg/injection, schedule: Q01DX009 (ip), vehicle: saline): 5 of 6

O=C(CBr)c1ccc(C(F)(F)F)cc1
survivor count (dose: 25.0 mg/kg/injection, schedule: Q01DX009 (ip), vehicle: DMSO): 4 of 6
survivor count (dose: 50.0 mg/kg/injection, schedule: Q01DX009 (ip), vehicle: DMSO): 0 of 6
survivor count (dose: 100.0 mg/kg/injection, schedule: Q01DX009 (ip), vehicle: DMSO): 0 of 6
survivor count (dose: 200.0 mg/kg/injection, schedule: Q01DX009 (ip), vehicle: DMSO): 0 of 6

CC1(C)O[Te]2(OC1(C)C)OC(C)(C)C(C)(C)O2
survivor count (dose: 12.5 mg/kg/injection, schedule: Q01DX001 (ip), vehicle: saline with Tween-80): 3 of 6
survivor count (dose: 200.0 mg/kg/injection, schedule: Q01DX001 (ip), vehicle: saline with Tween-80): 2 of 6
survivor count (dose: 400.0 mg/kg/injection, schedule: Q01DX001 (ip), vehicle: saline with Tween-80): 0 of 6

C/C=C/C(C#N)OC(C)=O (stereo not drawn)
survivor count (dose: 15.0 mg/kg/injection, schedule: Q01DX005 (ip), vehicle: saline): 0 of 6
survivor count (dose: 30.0 mg/kg/injection, schedule: Q01DX005 (ip), vehicle: saline): 0 of 6
survivor count (dose: 60.0 mg/kg/injection, schedule: Q01DX005 (ip), vehicle: saline): 0 of 6
survivor count (dose: 120.0 mg/kg/injection, schedule: Q01DX005 (ip), vehicle: saline): 0 of 6
survivor count (dose: 240.0 mg/kg/injection, schedule: Q01DX005 (ip), vehicle: saline): 0 of 6
